Results taken from article PMC10833457.
These are yes or no findings as the source states them, for the method shown. Binding seen in cells or lysates may run through a third protein. Some binding calls cover weakened binding; strength is not graded here.

Target: T1, YTHDF1 (mouse (endogenous in mPFC)), P59326
T1 chain: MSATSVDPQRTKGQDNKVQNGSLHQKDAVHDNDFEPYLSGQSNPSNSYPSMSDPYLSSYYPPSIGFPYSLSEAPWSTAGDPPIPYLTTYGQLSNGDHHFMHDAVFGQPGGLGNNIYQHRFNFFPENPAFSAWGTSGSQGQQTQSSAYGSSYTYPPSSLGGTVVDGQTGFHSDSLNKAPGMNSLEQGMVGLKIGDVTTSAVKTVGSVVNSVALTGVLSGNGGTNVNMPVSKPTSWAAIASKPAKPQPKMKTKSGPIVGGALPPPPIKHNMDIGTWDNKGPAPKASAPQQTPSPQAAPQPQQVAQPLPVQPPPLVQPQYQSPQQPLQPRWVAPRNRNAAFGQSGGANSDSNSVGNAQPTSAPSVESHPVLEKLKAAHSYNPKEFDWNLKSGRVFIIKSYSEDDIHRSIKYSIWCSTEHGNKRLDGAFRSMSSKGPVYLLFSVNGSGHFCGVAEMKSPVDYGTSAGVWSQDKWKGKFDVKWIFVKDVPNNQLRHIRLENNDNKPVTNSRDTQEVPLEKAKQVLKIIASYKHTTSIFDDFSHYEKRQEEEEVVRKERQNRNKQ
Assay: co-IP; mPFC homogenates from 22-month-old mice; immunoprecipitation with an anti-YTHDF1 or an anti-YTHDF2 antibody, detection with anti-YTHDF1 and anti-YTHDF2 antibodies
Settings: remark: other sources report otherwise

- binding: binds
B1: YTHDF2, Q91YT7 1-579 (protein)
chain: MSASSLLEQRPKGQGNKVQNGSVHQKDGLNDDDFEPYLSPQARPNNAYTAMSDSYLPSYYSPSIGFSYSLGEAAWSTGGDTAMPYLTSYGQLSNGEPHFLPDAMFGQPGALGSTPFLGQHGFNFFPSGIDFSAWGNNSSQGQSTQSSGYSSNYAYAPSSLGGAMIDGQSAFANETLNKAPGMNTIDQGMAALKLGSTEVASSVPKVVGSAVGSGSITSNIVASSSLPPATIAPPKPASWADIASKPAKQQPKLKTKNGIAGSSLPPPPIKHNMDIGTWDNKGPVAKAPSQALVQNIGQPTQGSPQPVGQQANNSPPVAQASVGQQTQPLPPPPPQPAQLSVQQQAAQPTRWVAPRNRGSGFGHNGVDGNGVGQSQAGSGSTPSEPHPVLEKLRSINNYNPKDFDWNLKHGRVFIIKSYSEDDIHRSIKYNIWCSTEHGNKRLDAAYRSMNGKGPVYLLFSVNGSGHFCGVAEMKSAVDYNTCAGVWSQDKWKGRFDVRWIFVKDVPNSQLRHIRLENNENKPVTNSRDTQEVPLEKAKQVLKIIASYKHTTSIFDDFSHYEKRQEEEESVKKERQGRGK
